The values that follow come from PMC4729484.

Amino acid sequences for entries named in this document (tags omitted). A change or cut given only in a name is not applied to a line headed by its entry.
UniProt Q8C6B2: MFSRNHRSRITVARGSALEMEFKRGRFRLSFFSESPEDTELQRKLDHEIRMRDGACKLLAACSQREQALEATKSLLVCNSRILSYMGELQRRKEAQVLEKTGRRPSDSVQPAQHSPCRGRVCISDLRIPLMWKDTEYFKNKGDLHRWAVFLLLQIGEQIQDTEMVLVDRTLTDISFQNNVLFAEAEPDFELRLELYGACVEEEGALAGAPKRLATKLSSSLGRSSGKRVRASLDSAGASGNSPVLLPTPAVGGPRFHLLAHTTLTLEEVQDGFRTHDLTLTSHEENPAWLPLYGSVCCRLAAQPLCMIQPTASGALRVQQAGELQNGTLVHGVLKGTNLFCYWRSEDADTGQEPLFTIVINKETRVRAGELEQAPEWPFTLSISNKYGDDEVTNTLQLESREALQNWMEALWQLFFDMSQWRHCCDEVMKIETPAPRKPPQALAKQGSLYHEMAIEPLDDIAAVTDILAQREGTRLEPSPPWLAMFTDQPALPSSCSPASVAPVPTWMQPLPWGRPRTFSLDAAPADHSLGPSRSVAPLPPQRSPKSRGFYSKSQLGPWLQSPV
UniProt P61586: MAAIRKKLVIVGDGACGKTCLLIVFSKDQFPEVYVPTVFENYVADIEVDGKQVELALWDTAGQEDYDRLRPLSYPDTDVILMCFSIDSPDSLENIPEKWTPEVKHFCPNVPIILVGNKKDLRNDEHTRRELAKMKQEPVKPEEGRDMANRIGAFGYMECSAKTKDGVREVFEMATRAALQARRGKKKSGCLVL

No constants are given. Whether binding was seen depends on the method and setting. Binding seen in cells or lysates may run through a third protein. Binding calls can cover weak binding; strength is not graded here.

In this assay the target is glutathione-S-transferase-Rhotekin-RhoA-binding domain (GST-RBD) (UniProt Q8C6B2). Briefly: pull-down; RhoA activation assay: GST-RBD bound to glutathione-sepharose beads incubated with lysates of COS-7 cells (transfected with GFP-RhoA constructs or not; with or without EGF, with or without U0126); buffer 50 mM Tris-HCl pH 7.6, 150 mM NaCl, 1% Triton X-100, 10 mM MgCl2; 4°C, 2 h; immunoblot with anti-GFP or anti-RhoA; only the target purified. (In general: In western blotting, separated proteins are transferred to a membrane and probed.)

In the case of “GFP-RhoA S88E/T100E (from UniProt P61586 1-193)”, the binding entry is recorded as “binds”.

In the case of GFP-RhoA (from UniProt P61586 1-193), the binding entry is “binds”.
